Measurements from the supplement of paper PMC8728848.
The list shows a part of the results.

How the values were obtained:
Experiment in all cases: glycan array binding signal (z-score within array); higher = stronger binding
Settings in all cases: glycan notation: IUPAC condensed, linker removed
[1] = biological target: Neu5Ac(a2-6)Gal(b1-4)GlcNAc(b1-2)Man(a1-3)[GlcNAc(b1-4)][Neu5Ac(a2-6)Gal(b1-4)GlcNAc(b1-2)Man(a1-6)]Man(b1-4)GlcNAc(b1-4)GlcNAc
How it was run: (§1)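 The binding signal is a Z-score computed within each array. Data were drawn from 3228 arrays in the Consortium for Functional Glycomics database, restricted to those with a known protein sequence. Scores were averaged over arrays of the same protein sequence at different concentrations or buffers, and over linkers, and negative values can be taken as non-binding.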

[2] = biological target: Neu5Ac(a2-6)Gal(b1-4)GlcNAc(b1-2)Man(a1-3)[Man(a1-6)]Man(b1-4)GlcNAc(b1-4)GlcNAc
How it was run: as §1

[3] = biological target: Neu5Ac(a2-6)Gal(b1-4)GlcNAc(b1-2)Man(a1-3)[Neu5Ac(a2-3)Gal(b1-4)GlcNAc(b1-2)Man(a1-6)]Man(b1-4)GlcNAc(b1-4)GlcNAc
How it was run: as §1

[4] = biological target: Neu5Ac(a2-6)Gal(b1-4)GlcNAc(b1-2)Man(a1-3)[Neu5Ac(a2-6)Gal(b1-4)GlcNAc(b1-2)Man(a1-6)]Man(b1-4)GlcNAc(b1-4)GlcNAc
How it was run: as §1

[5] = biological target: Neu5Ac(a2-6)Gal(b1-4)GlcNAc(b1-2)Man(a1-3)[Neu5Ac(a2-6)Gal(b1-4)GlcNAc(b1-2)Man(a1-6)]Man(b1-4)GlcNAc(b1-4)[Fuc(a1-6)]GlcNAc
How it was run: as §1

[6] = biological target: Neu5Ac(a2-6)Gal(b1-4)GlcNAc(b1-2)Man(a1-6)Man(b1-4)GlcNAc(b1-4)GlcNAc
How it was run: as §1

[7] = biological target: Neu5Ac(a2-6)Gal(b1-4)GlcNAc(b1-2)Man(a1-6)[Gal(b1-4)GlcNAc(b1-2)Man(a1-3)]Man(b1-4)GlcNAc(b1-4)GlcNAc
How it was run: as §1

[8] = biological target: Neu5Ac(a2-6)Gal(b1-4)GlcNAc(b1-2)Man(a1-6)[GlcNAc(b1-2)Man(a1-3)]Man(b1-4)GlcNAc(b1-4)GlcNAc
How it was run: as §1

[9] = biological target: Neu5Ac(a2-6)Gal(b1-4)GlcNAc(b1-2)Man(a1-6)[Man(a1-3)]Man(b1-4)GlcNAc(b1-4)GlcNAc
How it was run: as §1

[10] = biological target: Neu5Ac(a2-6)Gal(b1-4)GlcNAc(b1-2)[Neu5Ac(a2-6)Gal(b1-4)GlcNAc(b1-4)]Man(a1-3)[GlcNAc(b1-4)][Neu5Ac(a2-6)Gal(b1-4)GlcNAc(b1-2)[Neu5Ac(a2-6)Gal(b1-4)GlcNAc(b1-6)]Man(a1-6)]Man(b1-4)GlcNAc(b1-4)GlcNAc
How it was run: as §1

[11] = biological target: Neu5Ac(a2-6)Gal(b1-4)GlcNAc(b1-2)[Neu5Ac(a2-6)Gal(b1-4)GlcNAc(b1-4)]Man(a1-3)[GlcNAc(b1-4)][Neu5Ac(a2-6)Gal(b1-4)GlcNAc(b1-4)Man(a1-6)]Man(b1-4)GlcNAc(b1-4)GlcNAc
How it was run: as §1

[12] = biological target: Neu5Ac(a2-6)Gal(b1-4)GlcNAc(b1-2)[Neu5Ac(a2-6)Gal(b1-4)GlcNAc(b1-6)]Man(a1-6)[Neu5Ac(a2-6)Gal(b1-4)GlcNAc(b1-2)Man(a1-3)][GlcNAc(b1-4)]Man(b1-4)GlcNAc(b1-4)GlcNAc
How it was run: as §1

[13] = biological target: Neu5Ac(a2-6)Gal(b1-4)GlcNAc(b1-3)Gal(b1-3)GlcNAc
How it was run: as §1

[14] = biological target: Neu5Ac(a2-6)Gal(b1-4)GlcNAc(b1-3)Gal(b1-4)GlcNAc
How it was run: as §1

[15] = biological target: Neu5Ac(a2-6)Gal(b1-4)GlcNAc(b1-3)Gal(b1-4)GlcNAc(b1-2)Man(a1-3)[Neu5Ac(a2-6)Gal(b1-4)GlcNAc(b1-3)Gal(b1-4)GlcNAc(b1-2)Man(a1-6)]GalNAc
How it was run: as §1

[16] = biological target: Neu5Ac(a2-6)Gal(b1-4)GlcNAc(b1-3)Gal(b1-4)GlcNAc(b1-3)Gal(b1-4)GlcNAc
How it was run: as §1

[17] = biological target: Neu5Ac(a2-6)Gal(b1-4)GlcNAc(b1-3)Gal(b1-4)GlcNAc(b1-3)Gal(b1-4)GlcNAc(b1-2)Man(a1-3)[Neu5Ac(a2-6)Gal(b1-4)GlcNAc(b1-3)Gal(b1-4)GlcNAc(b1-3)Gal(b1-4)GlcNAc(b1-2)Man(a1-6)]GalNAc
How it was run: as §1

[18] = biological target: Neu5Ac(a2-6)Gal(b1-4)GlcNAc(b1-3)Gal(b1-4)GlcNAc(b1-3)GalNAc
How it was run: as §1

[19] = biological target: Neu5Ac(a2-6)Gal(b1-4)GlcNAc(b1-3)Gal(b1-4)GlcNAc(b1-3)[Neu5Ac(a2-6)Gal(b1-4)GlcNAc(b1-3)Gal(b1-4)GlcNAc(b1-6)]GalNAc
How it was run: as §1

[20] = biological target: Neu5Ac(a2-6)Gal(b1-4)GlcNAc(b1-3)Gal(b1-4)GlcNAc(b1-6)[Gal(b1-3)]GalNAc
How it was run: as §1

[21] = biological target: Neu5Ac(a2-6)Gal(b1-4)GlcNAc(b1-3)Gal(b1-4)[Fuc(a1-3)]GlcNAc(b1-3)Gal(b1-4)[Fuc(a1-3)]GlcNAc
How it was run: as §1

[22] = biological target: Neu5Ac(a2-6)Gal(b1-4)GlcNAc(b1-3)GalNAc
How it was run: as §1

[23] = biological target: Neu5Ac(a2-6)Gal(b1-4)GlcNAc(b1-3)[Neu5Ac(a2-6)Gal(b1-4)GlcNAc(b1-6)]GalNAc
How it was run: as §1

[24] = biological target: Neu5Ac(a2-6)Gal(b1-4)GlcNAc(b1-6)GalNAc
How it was run: as §1

[25] = biological target: Neu5Ac(a2-6)Gal(b1-4)GlcNAc(b1-6)[Gal(b1-3)GlcNAc(b1-3)]Gal(b1-4)Glc
How it was run: as §1

[26] = biological target: Neu5Ac(a2-6)Gal(b1-4)GlcNAc(b1-6)[Gal(b1-3)]GalNAc
How it was run: as §1

[27] = biological target: Neu5Ac(a2-6)Gal(b1-4)GlcNAc6S
How it was run: as §1

[28] = biological target: Neu5Ac(a2-6)GalNAc
How it was run: as §1

[29] = biological target: Neu5Ac(a2-6)GalNAc(b1-4)GlcNAc
How it was run: as §1

[30] = biological target: Neu5Ac(a2-6)GalNAc(b1-4)GlcNAc6S
How it was run: as §1

[31] = biological target: Neu5Ac(a2-6)GlcNAc(b1-4)GlcNAc
How it was run: as §1

B1: EfCBM33A (Enterococcus faecalis), Q838S1 (protein)
chain: MKKSLLTIVLAFSFVLGGAALAPTVSEAHGYVASPGSRAFFGSSAGGNLNTNVGRAQWEPQSIEAPKNTFITGKLASAGVSGFEPLDEQTATRWHKTNITTGPLDITWNLTAQHRTASWDYYITKNGWNPNQPLDIKNFDKIASIDGKQEVPNKVVKQTINIPTDRKGYHVIYAVWGIGDTVNAFYQAIDVNIQ
glycan array binding signal (z-score) [1]: -0.314 | glycan array binding signal (z-score) [2]: -0.921 | glycan array binding signal (z-score) [3]: -0.548 | glycan array binding signal (z-score) [4]: 0.296 | glycan array binding signal (z-score) [5]: -0.076 | glycan array binding signal (z-score) [6]: 0.268 | glycan array binding signal (z-score) [7]: -0.487 | glycan array binding signal (z-score) [8]: 0.54 | glycan array binding signal (z-score) [9]: 0.338 | glycan array binding signal (z-score) [10]: 2.16 | glycan array binding signal (z-score) [11]: -0.018 | glycan array binding signal (z-score) [12]: 0.103 | glycan array binding signal (z-score) [13]: -0.898 | glycan array binding signal (z-score) [14]: 2.76 | glycan array binding signal (z-score) [15]: -0.33 | glycan array binding signal (z-score) [16]: -1.38 | glycan array binding signal (z-score) [17]: 1.06 | glycan array binding signal (z-score) [18]: -1.04 | glycan array binding signal (z-score) [19]: 0.687 | glycan array binding signal (z-score) [20]: -1.17 | glycan array binding signal (z-score) [21]: 1.05 | glycan array binding signal (z-score) [22]: -0.095 | glycan array binding signal (z-score) [23]: 1.3 | glycan array binding signal (z-score) [24]: 0.504 | glycan array binding signal (z-score) [25]: -0.451 | glycan array binding signal (z-score) [26]: -0.769 | glycan array binding signal (z-score) [27]: -0.224 | glycan array binding signal (z-score) [28]: -1.22 | glycan array binding signal (z-score) [29]: -1.24 | glycan array binding signal (z-score) [30]: -0.172 | glycan array binding signal (z-score) [31]: -0.597
